Results on 50 substances are retold here after patent publication US7179446B2 (Bristol-Myers Squibb Pharma Company, priority 2000, dated 2007).

The series is described as follows: solid-phase peptide synthesis. As to conditions: TFA salt; for crude HPLC purity / final HPLC purity: Analytical HPLC (Method 1A / 1B).

“Glu(cyclo{Lys-Arg-Gly-Asp-D-Nal})-cyclo{Lys-Arg-Gly-Asp-D-Nal}”: the “crude HPLC purity” value (late stage modification step) is “Purity=62%”. In the case of “cyclo{Arg-Gly-Asp-D-Tyr(N-[2-[[[5-[carbonyl]-2-pyridinyl]hydrazono]methyl]-benzenesulfonic acid]-3-aminopropyl)-Val}”, under “conjugation step”, the “final HPLC purity” value is “Purity=95%” and the conjugation yield came out at 37%.

Regarding “Cyclo{Arg(Tos)-Gly-Asp(OBzl)-D-Tyr(Bzl)-Lys(Cbz)}”, the “crude HPLC purity” value (whole synthesis) is recorded as “Purity=82%”. “Boc-Glu(cyclo{Lys-Arg-Gly-Asp-D-Nal})-cyclo{Lys-Arg-Gly-Asp-D-Nal}”: the “crude HPLC purity” value (conjugation step) was “(65%)”. On to “Cyclo{Arg(Tos)-Gly-Asp(OBzl)-D-Tyr(N-Cbz-3-aminopropyl)-Val}”, for which the “crude HPLC purity” value (whole synthesis) was “Purity=75%”. For “cyclo{Arg-Gly-Asp-D-Tyr((N-[2-[[[5-[carbonyl]-2-pyridinyl]hydrazono]methyl]-benzenesulfonic acid]-18-amino-14-aza-4,7,10-oxy-15-oxo-octadecoyl)-3-aminopropyl)-Val}”, under “conjugation step”, the “final HPLC purity” value is “Purity=100%” and the conjugation yield is 38%. As to “Boc-Glu(cyclo{D-Tyr(3-aminopropyl)-Val-Arg-Gly-Asp})-cyclo{D-Tyr(3-aminopropyl)-Val-Arg-Gly-Asp}”, for the setting “conjugation step”, the “crude HPLC purity” value is “Purity=73%” and the conjugation yield was 55%. cyclo{Arg-Gly-Asp-Lys-D-Val}: for the setting “late stage modification step”, the “final HPLC purity” value is “Purity=92%” and the step yield amounted to 66%.

On to “cyclo{Arg(Mtr)-Gly-Asp(OtBu)-D-Nal-Lys(Boc)}”, for which, for the setting “cyclisation step”, the “crude HPLC purity” value was “purity 99%” and the cyclisation yield worked out at 86%. With “cyclo{Arg-D-Val-D-Tyr(3-aminopropyl)-D-Asp-Gly}”, the step yield (late stage modification step) turned out to be 27%. Take “cyclo{D-Lys([2-[[[5-[carbonyl]-2-pyridinyl]hydrazono]methyl]-benzenesulfonic acid])-D-Phe-D-Asp-Gly-Arg}”: under “conjugation step”, the “final HPLC purity” value is recorded as “Purity=99%” and the conjugation yield is recorded as 78%.

For the substance “Glu(cyclo{D-Tyr(3-aminopropyl)-Val-Arg-Gly-Asp})-cyclo{D-Tyr(3-aminopropyl)-Val-Arg-Gly-Asp}”, for the setting “late stage modification step”, the “crude HPLC purity” value is recorded as “Purity=77%” and the step yield is given as 76%. As for “cyclo{Arg-Gly-Asp-D-Tyr(3-(3-(N-(3-(2-(2-(3-((tert-butoxy)-carbonylamino)propoxy)ethoxy)-ethoxy)propyl)carbamoyl)-propanamido)propyl)-Val}”, where the note is “conjugation step”, the “final HPLC purity” value is reported as “Purity=100%” and the conjugation yield turned out to be 14%.

With cyclo{Cit-Gly-Asp(OtBu)-D-Phe-Lys(Boc)}, for the setting “cyclisation step”, the “crude HPLC purity” value is listed as “purity 99%” and the cyclisation yield was determined as 78%. With “Cyclo{Arg(Tos)-Gly-Asp(OBzl)-D-Phe-Lys(Cbz)}”, the “crude HPLC purity” value (whole synthesis) is reported as “Purity=89%”. cyclo{D-Lys-D-Phe-D-Asp-Gly-Arg}: where the note is “late stage modification step”, the “final HPLC purity” value is listed as “Purity=93%” and the step yield entry is listed as “˜53%”. In the case of cyclo{D-Phe-D-Lys-D-Asp-Gly-Arg}, the “final HPLC purity” value (late stage modification step) is reported as “Purity=90%”.

With “[2-[[[5-[carbonyl]-2-pyridinyl]-hydrazono]methyl]-benzenesulfonic acid]-Glu(cyclo{Lys-Arg-Gly-Asp-D-Phe})-cyclo{Lys-Arg-Gly-Asp-D-Phe}”, where the note is “conjugation step”, the “final HPLC purity” value is “Purity=91%” and the conjugation yield is given as 32%.

In the case of “cyclo{D-Phe-D-Lys(Cbz)-D-Asp(OBzl)-Gly-Arg(Tos)}”, where the note is “whole synthesis”, the “crude HPLC purity” value is “purity 60%”. As for “cyclo{Arg-Gly-Asp-Lys([2-[[[5-[carbonyl]-2-pyridinyl]hydrazono]methyl]-benzenesulfonic acid])-D-Val}”, where the note is “conjugation step”, the “final HPLC purity” value was “Purity=92%” and the conjugation yield turned out to be 31%.

Take “cyclo{Arg-Gly-Asp-D-Nal-Lys([2-[[[5-[carbonyl]-2-pyridinyl]hydrazono]methyl]-benzenesulfonic acid])}”: under “conjugation step”, the “final HPLC purity” value was “Purity=99%” and the conjugation yield worked out at 72%. In the same order, the values of “cyclo{Cit-Gly-Asp-D-Phe-Lys([2-[[[5-[carbonyl]-2-pyridinyl]hydrazono]methyl]-benzenesulfonic acid])}” are “Purity=99%” and 70%. In the same order, the values of “[2-[[[5-[carbonyl]-2-pyridinyl]hydrazono]methyl]-benzenesulfonic acid]-Phe-Glu(cyclo{Lys-Arg-Gly-Asp-D-Phe})-cyclo{Lys-Arg-Gly-Asp-D-Phe}” are “Purity=99%” and 22%.

On to “[2-[[[5-[carbonyl]-2-pyridinyl]hydrazono]methyl]-benzenesulfonic acid]-Glu(cyclo{Lys-Arg-Gly-Asp-D-Nal})-cyclo{Lys-Arg-Gly-Asp-D-Nal}”, for which the “final HPLC purity” value (conjugation step) is “Purity=92%”.

Turning to “Cyclo{Arg(Tos)-Gly-Asp(OBzl)-Lys(Cbz)-D-Val}”, where the note is “whole synthesis”, the “final HPLC purity” value is reported as “Purity=85%”. Consider “[2-[[[5-[carbonyl]-2-pyridinyl]hydrazono]methyl]-benzenesulfonic acid]-Glu(cyclo{Lys-D-Val-Arg-Gly-Asp})-cyclo{Lys-D-Val-Arg-Gly-Asp}”, for which the “final HPLC purity” value (conjugation step) is listed as “Purity=99%”.

On to “Cyclo{Arg-Gly-Asp-D-Tyr(3-aminopropyl)-Val}”, for which, under “late stage modification step”, the “final HPLC purity” value was “Purity=91%” and the step yield amounted to 23%. In the case of “Boc-Glu(cyclo{Lys-Arg-Gly-Asp-D-Phe})-cyclo{Lys-Arg-Gly-Asp-D-Phe}”, under “conjugation step”, the “crude HPLC purity” value is “Purity=73%” and the conjugation yield amounted to 44%.

“cyclo{Arg(Tos)-D-Val-D-Tyr(N-Cbz-3-aminopropyl)-D-Asp(OBzl)-Gly}”: where the note is “whole synthesis”, the isolated yield is 30%. Turning to “cyclo{N-Me-Arg-Gly-Asp-ATA-D-Lys([2-[[[5-[carbonyl]-2-pyridinyl]hydrazono]methyl]-benzenesulfonic acid])}”, for the setting “conjugation step”, the conjugation yield was 8.8%.

Turning to “cyclo{Arg-Gly-Asp-D-Phe-Lys([2-[[[5-[carbonyl]-2-pyridinyl]hydrazono]methyl]-benzenesulfonic acid])}”, for the setting “conjugation step”, the “final HPLC purity” value is “Purity=91%” and the conjugation yield stood at 78%. Consider “cyclo{Arg-Gly-Asp-D-Tyr(3-(3-(N-(3-(2-(2-(3-(amino)propoxy)ethoxy)ethoxy)propyl)carbamoyl)-propanamido)propyl)-Val}”, for which, under “late stage modification step”, the “crude HPLC purity” value is reported as “Purity=73%” and the step yield is reported as 98%. In the case of “[2-[[[5-[carbonyl]-2-pyridinyl]hydrazono]methyl]-benzenesulfonic acid]-Glu(cyclo{D-Lys-D-Phe-D-Asp-Gly-Arg})-cyclo{D-Lys-D-Phe-D-Asp-Gly-Arg}”, the “final HPLC purity” value (conjugation step) is reported as “Purity=96%”. Take “cyclo{N-Me-Arg(Tos)-Gly-Asp(OBzl)-ATA-D-Lys(Cbz)}”: the isolated yield (whole synthesis) worked out at 9%. Regarding “2-(1,4,7,10-tetraaza-4,7,10-tris(carboxymethyl)-1-cyclododecyl)acetyl-Glu(cyclo{Lys-Arg-Gly-Asp-D-Phe})-cyclo{Lys-Arg-Gly-Asp-D-Phe}”, where the note is “late stage modification step”, the “final HPLC purity” value is “Purity=99%” and the step yield came to 45%. Consider “Glu(cyclo{D-Lys-D-Phe-D-Asp-Gly-Arg})-cyclo{D-Lys-D-Phe-D-Asp-Gly-Arg}”, for which the “final HPLC purity” value (late stage modification step) is given as “Purity=93%”. In the case of cyclo{Arg-Gly-Asp-D-Phe-Lys(DTPA)}, for the setting “conjugation step”, the “final HPLC purity” value was “Purity=100%” and the conjugation yield is recorded as 46%. In the same order, the values of “[2-[[[5-[carbonyl]-2-pyridinyl]hydrazono]methyl]-benzenesulfonic acid]-Glu(cyclo{D-Tyr(3-aminopropyl)-Val-Arg-Gly-Asp})-cyclo{D-Tyr(3-aminopropyl)-Val-Arg-Gly-Asp}” are “Purity=94%” and 43%. As to Cyclo{Arg-Gly-Asp-D-Phe-Lys}, for the setting “late stage modification step”, the “final HPLC purity” value was “Purity=100%” and the step yield was found to be 71%. “cyclo{Arg-Gly-Asp-D-Nal-Lys} bis TFA salt”: for the setting “late stage modification step”, the “crude HPLC purity” value is reported as “Purity=97%” and the step yield is given as 98%. On the same counts, the results for “Glu(cyclo{Lys-Arg-Gly-Asp-D-Phe})-cyclo{Lys-Arg-Gly-Asp-D-Phe} TFA salt” are “Purity=73%” and 100%. Regarding “2-(1,4,7,10-tetraaza-4,7,10-tris(t-butoxycarbonylmethyl)-1-cyclododecyl)acetyl-Glu(cyclo{Lys-Arg-Gly-Asp-D-Phe})-cyclo{Lys-Arg-Gly-Asp-D-Phe}”, the “final HPLC purity” value (conjugation step) is “Purity=99%”. In the case of “Cyclo{Arg-Gly-Asp-D-Tyr(N-DTPA-3-aminopropyl)-Val}”, for the setting “conjugation step”, the “final HPLC purity” value is listed as “Purity=96%” and the conjugation yield is 65%. With cyclo{Arg-Gly-Asp-D-Phe-Lys}2(DTPA), under “conjugation step”, the “final HPLC purity” value is on record as “Purity=93%” and the conjugation yield is reported as 21%.

Regarding cyclo{Cit-Gly-Asp-D-Phe-Lys}, the “crude HPLC purity” value (late stage modification step) is reported as “Purity=97%”. On to “cyclo{D-Phe-D-Lys([2-[[[5-[carbonyl]-2-pyridinyl]hydrazono]methyl]-benzenesulfonic acid])-D-Asp-Gly-Arg}”, for which the “final HPLC purity” value (conjugation step) is on record as “Purity=89%”. For the substance cyclo{N-Me-Arg-Gly-Asp-ATA-D-Lys}, the step yield (late stage modification step) was found to be 100%.

“Phe-Glu(cyclo{Lys-Arg-Gly-Asp-D-Phe})-cyclo{Lys-Arg-Gly-Asp-D-Phe}”: the “crude HPLC purity” value (coupling step) is “Purity=95%”. On to Cyclo{Arg-Gly-Asp-D-Tyr-Lys}, for which, where the note is “late stage modification step”, the “final HPLC purity” value is reported as “Purity=100%” and the step yield is 10%. For the substance “Glu(cyclo{Lys-D-Val-Arg-Gly-Asp})-cyclo{Lys-D-Val-Arg-Gly-Asp}”, where the note is “late stage modification step”, the “final HPLC purity” value is “Purity=93%”.
